Reference: PMC4227020
No constants are given. Whether binding was seen depends on the method and setting. For some assays here: In cells and extracts the contact can be indirect. Some binding calls cover weakened binding; strength is not graded here. Where a sequence is shown, tags or fusion partners need not be part of it.

Sequences of proteins named here, by UniProt entry; tags and fusion partners are left off. A change or cut given only in a name is not applied to a line headed by its entry.
UniProt P59215: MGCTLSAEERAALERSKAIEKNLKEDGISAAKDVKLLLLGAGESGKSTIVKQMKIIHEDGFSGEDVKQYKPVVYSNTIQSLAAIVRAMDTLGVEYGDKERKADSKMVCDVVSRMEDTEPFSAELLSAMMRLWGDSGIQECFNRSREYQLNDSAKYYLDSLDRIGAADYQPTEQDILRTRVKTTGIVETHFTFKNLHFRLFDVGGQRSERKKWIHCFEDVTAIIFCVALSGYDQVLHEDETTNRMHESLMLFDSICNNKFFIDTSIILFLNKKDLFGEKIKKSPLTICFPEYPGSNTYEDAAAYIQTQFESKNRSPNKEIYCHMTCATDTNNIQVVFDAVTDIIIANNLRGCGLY

What was measured:
[1] = molecular target: T1, Hemagglutinin (HA)-tagged Necdin (HA-Necdin) (UniProt P25233); test: co-IP; lysates of 293T cells co-expressing FLAG-Gα constructs and HA-Necdin; precipitated with anti-Necdin antibodies; blots with anti-FLAG and anti-Necdin
T1 sequence: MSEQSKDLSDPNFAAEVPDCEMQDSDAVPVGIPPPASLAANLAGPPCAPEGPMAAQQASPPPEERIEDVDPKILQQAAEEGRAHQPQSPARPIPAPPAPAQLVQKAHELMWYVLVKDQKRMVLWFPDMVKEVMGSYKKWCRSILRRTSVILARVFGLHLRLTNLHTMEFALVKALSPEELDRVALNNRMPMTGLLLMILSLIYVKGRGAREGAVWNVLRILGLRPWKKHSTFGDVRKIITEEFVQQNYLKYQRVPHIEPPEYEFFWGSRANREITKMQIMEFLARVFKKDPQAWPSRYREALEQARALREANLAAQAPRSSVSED

[2] = molecular target: T2, Glutathione-S-transferase (GST)-tagged Necdin (GST-Necdin) (UniProt P25233); test: pull-down; purified His-Gαo (600 nM) pre-incubated with 30 μM GDP and AlF4- (10 mM NaF, 30 μM AlCl3) 1 h at 30°C in HEMNDL buffer pH 8.0, 150 mM NaCl; GST-Necdin (200 nM) added, 20 min at 20°C; captured on glutathione-Sepharose 4B beads 1 h at 4°C; blots with anti-Gαo and anti-Necdin; both purified
T2 sequence: T1 sequence

[3] = molecular target: Wild type of Gαo (GαoWT) (UniProt P59215); test: co-IP; lysates of 293T cells co-transfected with GαoWT or GαoQ205L and FLAG-Necdin; precipitated with anti-Gαo (or anti-FLAG); blots with anti-FLAG and anti-Gαo; PBTX buffer
[4] = molecular target: Constitutively activated mutant of Gαo (GαoQ205L) (UniProt P59215); test: as above
[5] = molecular target: GST-Gαo (UniProt P59215); test: pull-down; GST-Gαo on glutathione-Sepharose 4B beads; 293T cell extract (500 μg) expressing FLAG-Necdin; 1 h at 37°C in PBTX buffer; blot with anti-FLAG; only the target purified

FLAG-Gαo (from UniProt P59215 1-354)
binding [1]: binds

His-Gαo (from UniProt P59215 1-354)
binding [2]: binds

B1: FLAG-tagged Necdin (FLAG-Necdin) (protein, UniProt P25233 1-325)
chain: T1 sequence
binding [3]: binds
binding [4]: binds
binding [5]: binds
